Measurements as given in paper PMC5945599.

Target: T1, full-length Flag-tagged human OMA1 (human) (UniProt Q96E52)
T1 sequence: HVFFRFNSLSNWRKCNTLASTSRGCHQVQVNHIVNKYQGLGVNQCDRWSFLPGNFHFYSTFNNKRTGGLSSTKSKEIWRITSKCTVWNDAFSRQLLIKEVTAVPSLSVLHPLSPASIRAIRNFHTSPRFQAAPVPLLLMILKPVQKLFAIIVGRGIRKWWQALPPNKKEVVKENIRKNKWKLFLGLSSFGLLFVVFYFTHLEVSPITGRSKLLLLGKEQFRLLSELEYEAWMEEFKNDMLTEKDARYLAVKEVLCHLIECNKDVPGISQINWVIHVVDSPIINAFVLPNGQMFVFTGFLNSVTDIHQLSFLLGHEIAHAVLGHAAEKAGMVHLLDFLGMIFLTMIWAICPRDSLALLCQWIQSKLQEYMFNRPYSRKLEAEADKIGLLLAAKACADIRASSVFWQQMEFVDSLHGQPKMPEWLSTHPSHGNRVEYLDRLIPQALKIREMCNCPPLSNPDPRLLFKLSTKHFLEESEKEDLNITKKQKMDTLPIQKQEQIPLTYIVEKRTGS
Experiment: co-IP; HEK293T cells transfected with 3 ug Flag-OMA1 plasmid for 48 h; lysis buffer 50 mM Tris-HCl pH 7.4, 150 mM NaCl, 0.1% NP-40; IP with monoclonal anti-flag M2 antibody or normal mouse IgG at 4 °C overnight, protein A/G beads; immunoblot with anti-GSK3 and Flag antibodies

## endogenous GSK3 (human (endogenous in HEK293T)) (enzyme)
  binding: binds

Results are given in words; binding and its absence hold for the method and conditions named. In cells and extracts the contact can be indirect. A result given as binding can be weak or reduced; the word gives no strength. Where a sequence is shown, tags or fusion partners need not be part of it.
